# Data published in patent US20230105693A1, “ANTIMICROBIAL COMPOSITIONS” (Firmenich SA, priority 2020, published 2023).
# Some entries share one result that the patent states for a list of compounds. At least one compound was matched to its structure with a doubt left.
# Test system: E. coli ATCC 10536
# Assay: Bacterial contact time (BCT) test of perfume ingredients in 20% ethanol solution (EN-1276 based)
# Assay type: cell-based, Escherichia coli
# Details: concentration for at least 5.5 log reduction, contact time 45 s
# Method: Bacterial suspensions of E. coli ATCC 10536 were prepared for antimicrobial testing as follows. Stock cultures stored at -80° C. were sub-cultured onto Tryptic Soy Agar (TSA) plate, and incubated at 37° C. for 24 h to obtain single colonies. Single colonies of the primary cultures were streaked onto TSA plates and incubated at 37° C. for 24 h to prepare the secondary cultures. Single colonies of secondary cultures were inoculated into 50 mL of Tryptic Soy broth (TSB), incubated at 37° C. 180 rpm for 18 h. Aliquots (0.5 ml) of the 18 h culture were inoculated into 50 ml of fresh TSB, and incubated at 37° C. 180 rpm for 2- 3 hours. When the OD600 nm value of the broth reached 1-2, cells were harvested by centrifugation at 5,000 rpm for 10 min, and then resuspended in the same fresh broth media to achieve the target level of 1-5 × 10^8 colony forming unit (CFU)/mL. This suspension was used for further antimicrobial tests.
# Unless indicated otherwise, log reduction testing according to the present invention is determined in accordance with the following method.
# Bacterial contact time (BCT) test based on European standard EN-1276 was used to determine dose dependent bactericidal activity of perfume ingredients in 20% ethanol solutions.
# Perfume ingredients of various concentrations (doses) were prepared in 40% ethanol solutions. Eleven replicates of each sample were added into 96-well microtiter plates (120 µl per well) in column 1-11 of one row, with row B as the control sample of the ethanol solution. Then, 120 µl of cell suspension at a concentration of approximately 1-5 × 10^8 CFU/ML (as prepared above) were added to each well of the microtiter plate. A specified contact time (45 s) was allowed for target bacterial strains. At the end of the contact time, serial dilutions were prepared in 96 well plates with growth media: 3 times of 1 in 10 dilutions and followed by 17 times of 1 in 2 dilutions. Each plate was sealed and incubated at 37° C. under agitation (180 rpm). After incubation, turbidity of the wells (OD 600 nm) was recorded by Tecan microplate reader. Turbid cells were regarded as positive growth of viable cells. The total number of viable cells (log CFU/mL) for each sample was calculated. And the log reduction for each test composition at the final concentration (dose) was calculated against the control sample of the 20% ethanol solution.
# Table 20 show the bactericidal dose related effect (log reduction) and calculated effect fraction of the Mixture C and compositions against E. coli ATCC 10536. Stock of compositions were prepared in 100% ethanol, then diluted in MilliQ water to obtain 2 × final concentration in 40% ethanol. BCT tests were conducted on samples against E. coli for a contact time of 45 s.
row,SMILES,bactericidal activity in ethanol solutions (group)
1,CC(CC=O)c1ccccc1 (centres unmarked) [3-phenylbutanal],medium (at least a 5.5 log reduction in bacterial viability at a concentration within 0.1 - 0.5% (w/v) of the bactericidal perfume ingredients in ethanol solution)
2,CCOC(=O)c1ccccc1O [ethyl 2-hydroxybenzoate],high (at least a 5.5 log reduction in bacterial viability at less than or equal to 0.1% (w/v) of the bactericidal perfume ingredients in ethanol solution)
3,CCCCCC(=O)OCC [ethyl hexanoate],high (at least a 5.5 log reduction in bacterial viability at less than or equal to 0.1% (w/v) of the bactericidal perfume ingredients in ethanol solution)
4,"C=CC(C)CC(=O)CC(C)C (centres unmarked) [2,6-dimethyl-7-octen-4-one]",high (at least a 5.5 log reduction in bacterial viability at less than or equal to 0.1% (w/v) of the bactericidal perfume ingredients in ethanol solution)
5,CC/C=C\CCOC(C)=O [(Z)-3-hexenyl acetate],medium (at least a 5.5 log reduction in bacterial viability at a concentration within 0.1 - 0.5% (w/v) of the bactericidal perfume ingredients in ethanol solution)
6,"CC12CCC(C1)C(C)(C)C2=O (centres unmarked) [1,3,3-trimethylbicyclo[2.2.1]heptan-2-one]",high (at least a 5.5 log reduction in bacterial viability at less than or equal to 0.1% (w/v) of the bactericidal perfume ingredients in ethanol solution)
7,CCC/C=C(\C)C(=O)OC [methyl (2E)-2-methyl-2-hexenoate],high (at least a 5.5 log reduction in bacterial viability at less than or equal to 0.1% (w/v) of the bactericidal perfume ingredients in ethanol solution)
8,"CC(C)OC(=O)C(C)OC(=O)C(C)(C)C (centres unmarked) [1-oxo-1-(2-propanyloxy)-2-propanyl 2,2-dimethylpropanoate]",medium (at least a 5.5 log reduction in bacterial viability at a concentration within 0.1 - 0.5% (w/v) of the bactericidal perfume ingredients in ethanol solution)
9,COc1cncc(CC(C)C)n1 [2-isobutyl-6-methoxypyrazine],medium (at least a 5.5 log reduction in bacterial viability at a concentration within 0.1 - 0.5% (w/v) of the bactericidal perfume ingredients in ethanol solution)
10,"CCCCCCC(CCOC(C)=O)OC(C)=O (centres unmarked) [1,3-nonanediyl diacetate]",medium (at least a 5.5 log reduction in bacterial viability at a concentration within 0.1 - 0.5% (w/v) of the bactericidal perfume ingredients in ethanol solution)
11,O=C/C=C/c1ccccc1 [(E)-3-Phenyl-2-propenal],medium (at least a 5.5 log reduction in bacterial viability at a concentration within 0.1 - 0.5% (w/v) of the bactericidal perfume ingredients in ethanol solution)
12,"O=C1CCC=CCCC=CCCC1 [4,8-cyclododecadien-1-one]",high (at least a 5.5 log reduction in bacterial viability at less than or equal to 0.1% (w/v) of the bactericidal perfume ingredients in ethanol solution)
13,C/C(=C\c1ccc(C)cc1)CCC=O [(4E)-4-methyl-5-(4-methylphenyl)-4-pentenal],high (at least a 5.5 log reduction in bacterial viability at less than or equal to 0.1% (w/v) of the bactericidal perfume ingredients in ethanol solution)
14,"CC1=CC(C)C(C=O)C(C)C1 (centres unmarked) [2,4,6-trimethyl-3-cyclohexene-1-carbaldehyde]",medium (at least a 5.5 log reduction in bacterial viability at a concentration within 0.1 - 0.5% (w/v) of the bactericidal perfume ingredients in ethanol solution)
15,COc1nccnc1CC(C)C [2-isobutyl-3-methoxypyrazine],medium (at least a 5.5 log reduction in bacterial viability at a concentration within 0.1 - 0.5% (w/v) of the bactericidal perfume ingredients in ethanol solution)
16,CCCC(S)CCOC (centres unmarked) [1-methoxy-3-hexanethiol],medium (at least a 5.5 log reduction in bacterial viability at a concentration within 0.1 - 0.5% (w/v) of the bactericidal perfume ingredients in ethanol solution)
17,"CC(CCO)CC(C)(C)C (centres unmarked) [3,5,5-trimethyl-1-hexanol]",high (at least a 5.5 log reduction in bacterial viability at less than or equal to 0.1% (w/v) of the bactericidal perfume ingredients in ethanol solution)
18,CC/C(CC(C)CC)=N/O (racemic) [(+-)-(3Z)-5-methyl-3-heptanone oxime OR (+-)-(3E)-5-methyl-3-heptanone oxime],medium (at least a 5.5 log reduction in bacterial viability at a concentration within 0.1 - 0.5% (w/v) of the bactericidal perfume ingredients in ethanol solution)
19,CCCCC/C=C\CCC=O [(Z)-4-decenal],high (at least a 5.5 log reduction in bacterial viability at less than or equal to 0.1% (w/v) of the bactericidal perfume ingredients in ethanol solution)
20,"CC(C)CC(O)CC(C)C [2,6-dimethyl-4-heptanol]",high (at least a 5.5 log reduction in bacterial viability at less than or equal to 0.1% (w/v) of the bactericidal perfume ingredients in ethanol solution)
21,"CC1(C)C2CCC1(C)C(O)C2 (centres unmarked) [1,7,7-trimethylbicyclo[2.2.1]heptan-2-ol]",high (at least a 5.5 log reduction in bacterial viability at less than or equal to 0.1% (w/v) of the bactericidal perfume ingredients in ethanol solution)
22,"CCOC(=O)C1=CC=C(C)CC1(C)C [ethyl 4,6,6-trimethyl-1,3-cyclohexadiene-1-carboxylate]",medium (at least a 5.5 log reduction in bacterial viability at a concentration within 0.1 - 0.5% (w/v) of the bactericidal perfume ingredients in ethanol solution)
23,CCC(=O)OCCC(C)C [3-methylbutyl propionate],medium (at least a 5.5 log reduction in bacterial viability at a concentration within 0.1 - 0.5% (w/v) of the bactericidal perfume ingredients in ethanol solution)
24,COC(=O)c1ccc(OC)cc1 [methyl 4-methoxybenzoate],medium (at least a 5.5 log reduction in bacterial viability at a concentration within 0.1 - 0.5% (w/v) of the bactericidal perfume ingredients in ethanol solution)
25,Cc1c[nH]c2ccccc12 [3-methylindole],high (at least a 5.5 log reduction in bacterial viability at less than or equal to 0.1% (w/v) of the bactericidal perfume ingredients in ethanol solution)
26,CCCC(=O)OCc1ccccc1 [benzyl butanoate],high (at least a 5.5 log reduction in bacterial viability at less than or equal to 0.1% (w/v) of the bactericidal perfume ingredients in ethanol solution)
27,COC(=O)C=C1CCCC1 [methyl cyclopentylideneacetate],medium (at least a 5.5 log reduction in bacterial viability at a concentration within 0.1 - 0.5% (w/v) of the bactericidal perfume ingredients in ethanol solution)
28,CC/C=C\CCC1CCC(=O)O1 (centres unmarked) [(Z)-7-decen-4-olide],medium (at least a 5.5 log reduction in bacterial viability at a concentration within 0.1 - 0.5% (w/v) of the bactericidal perfume ingredients in ethanol solution)
29,"CC=Cc1ccc(OC)c(OC)c1 [1,2-dimethoxy-4-[1-propen-1-yl]benzene]",high (at least a 5.5 log reduction in bacterial viability at less than or equal to 0.1% (w/v) of the bactericidal perfume ingredients in ethanol solution)
